In PubChem BioAssay AID1024 (Sanford-Burnham Center for Chemical Genomics, 2008):
The list shows a part of the results, in another mix than the full data. Activity calls are given as the source filed them.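 How the source made its calls: active means activation factor of 2 or more for CYP2C9 at a 5 µM dose; inactive means the rest.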

Sequences of proteins named here, by UniProt entry; tags and fusion partners are left off.
UniProt P11712, whole entry, looked up: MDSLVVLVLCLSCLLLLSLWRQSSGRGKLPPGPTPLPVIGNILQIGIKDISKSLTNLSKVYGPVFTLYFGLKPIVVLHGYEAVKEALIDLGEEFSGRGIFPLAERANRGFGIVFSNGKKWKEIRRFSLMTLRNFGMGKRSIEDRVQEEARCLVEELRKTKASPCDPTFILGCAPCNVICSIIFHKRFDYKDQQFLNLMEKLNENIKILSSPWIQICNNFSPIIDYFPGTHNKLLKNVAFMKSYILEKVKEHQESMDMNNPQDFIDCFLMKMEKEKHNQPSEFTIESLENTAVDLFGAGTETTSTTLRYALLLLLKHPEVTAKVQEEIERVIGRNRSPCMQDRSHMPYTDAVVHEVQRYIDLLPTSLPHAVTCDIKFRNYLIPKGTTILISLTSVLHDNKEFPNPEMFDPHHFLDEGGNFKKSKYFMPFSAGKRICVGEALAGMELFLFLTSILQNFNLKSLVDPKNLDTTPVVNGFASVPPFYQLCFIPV

target: Cytochrome P450 2C9 (Homo sapiens) (UniProt P11712); test: enhancers of cytochrome P450 2C9 turnover – biochemical, luminescence, primary screen (AID 1024); details: recombinant CYP2C9, luciferin-H conversion, at 5 µM, active compounds read high, factor 1 = untreated enzyme, 0 = blocked;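 further: 0 = sulfaphenazole-blocked wells and 1 = vehicle-only wells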

| Compound | activation factor |
| --- | --- |
| CSc1ccccc1NC(=O)c1cc(CC(C)C)on1 | active: 2.3 |
